This passage reports binding results from article doi:10.1101/2021.08.20.456807.

Sequences of proteins named here, by UniProt entry; tags and fusion partners are left off. Residues count along the entry.
UniProt Q9NZJ4: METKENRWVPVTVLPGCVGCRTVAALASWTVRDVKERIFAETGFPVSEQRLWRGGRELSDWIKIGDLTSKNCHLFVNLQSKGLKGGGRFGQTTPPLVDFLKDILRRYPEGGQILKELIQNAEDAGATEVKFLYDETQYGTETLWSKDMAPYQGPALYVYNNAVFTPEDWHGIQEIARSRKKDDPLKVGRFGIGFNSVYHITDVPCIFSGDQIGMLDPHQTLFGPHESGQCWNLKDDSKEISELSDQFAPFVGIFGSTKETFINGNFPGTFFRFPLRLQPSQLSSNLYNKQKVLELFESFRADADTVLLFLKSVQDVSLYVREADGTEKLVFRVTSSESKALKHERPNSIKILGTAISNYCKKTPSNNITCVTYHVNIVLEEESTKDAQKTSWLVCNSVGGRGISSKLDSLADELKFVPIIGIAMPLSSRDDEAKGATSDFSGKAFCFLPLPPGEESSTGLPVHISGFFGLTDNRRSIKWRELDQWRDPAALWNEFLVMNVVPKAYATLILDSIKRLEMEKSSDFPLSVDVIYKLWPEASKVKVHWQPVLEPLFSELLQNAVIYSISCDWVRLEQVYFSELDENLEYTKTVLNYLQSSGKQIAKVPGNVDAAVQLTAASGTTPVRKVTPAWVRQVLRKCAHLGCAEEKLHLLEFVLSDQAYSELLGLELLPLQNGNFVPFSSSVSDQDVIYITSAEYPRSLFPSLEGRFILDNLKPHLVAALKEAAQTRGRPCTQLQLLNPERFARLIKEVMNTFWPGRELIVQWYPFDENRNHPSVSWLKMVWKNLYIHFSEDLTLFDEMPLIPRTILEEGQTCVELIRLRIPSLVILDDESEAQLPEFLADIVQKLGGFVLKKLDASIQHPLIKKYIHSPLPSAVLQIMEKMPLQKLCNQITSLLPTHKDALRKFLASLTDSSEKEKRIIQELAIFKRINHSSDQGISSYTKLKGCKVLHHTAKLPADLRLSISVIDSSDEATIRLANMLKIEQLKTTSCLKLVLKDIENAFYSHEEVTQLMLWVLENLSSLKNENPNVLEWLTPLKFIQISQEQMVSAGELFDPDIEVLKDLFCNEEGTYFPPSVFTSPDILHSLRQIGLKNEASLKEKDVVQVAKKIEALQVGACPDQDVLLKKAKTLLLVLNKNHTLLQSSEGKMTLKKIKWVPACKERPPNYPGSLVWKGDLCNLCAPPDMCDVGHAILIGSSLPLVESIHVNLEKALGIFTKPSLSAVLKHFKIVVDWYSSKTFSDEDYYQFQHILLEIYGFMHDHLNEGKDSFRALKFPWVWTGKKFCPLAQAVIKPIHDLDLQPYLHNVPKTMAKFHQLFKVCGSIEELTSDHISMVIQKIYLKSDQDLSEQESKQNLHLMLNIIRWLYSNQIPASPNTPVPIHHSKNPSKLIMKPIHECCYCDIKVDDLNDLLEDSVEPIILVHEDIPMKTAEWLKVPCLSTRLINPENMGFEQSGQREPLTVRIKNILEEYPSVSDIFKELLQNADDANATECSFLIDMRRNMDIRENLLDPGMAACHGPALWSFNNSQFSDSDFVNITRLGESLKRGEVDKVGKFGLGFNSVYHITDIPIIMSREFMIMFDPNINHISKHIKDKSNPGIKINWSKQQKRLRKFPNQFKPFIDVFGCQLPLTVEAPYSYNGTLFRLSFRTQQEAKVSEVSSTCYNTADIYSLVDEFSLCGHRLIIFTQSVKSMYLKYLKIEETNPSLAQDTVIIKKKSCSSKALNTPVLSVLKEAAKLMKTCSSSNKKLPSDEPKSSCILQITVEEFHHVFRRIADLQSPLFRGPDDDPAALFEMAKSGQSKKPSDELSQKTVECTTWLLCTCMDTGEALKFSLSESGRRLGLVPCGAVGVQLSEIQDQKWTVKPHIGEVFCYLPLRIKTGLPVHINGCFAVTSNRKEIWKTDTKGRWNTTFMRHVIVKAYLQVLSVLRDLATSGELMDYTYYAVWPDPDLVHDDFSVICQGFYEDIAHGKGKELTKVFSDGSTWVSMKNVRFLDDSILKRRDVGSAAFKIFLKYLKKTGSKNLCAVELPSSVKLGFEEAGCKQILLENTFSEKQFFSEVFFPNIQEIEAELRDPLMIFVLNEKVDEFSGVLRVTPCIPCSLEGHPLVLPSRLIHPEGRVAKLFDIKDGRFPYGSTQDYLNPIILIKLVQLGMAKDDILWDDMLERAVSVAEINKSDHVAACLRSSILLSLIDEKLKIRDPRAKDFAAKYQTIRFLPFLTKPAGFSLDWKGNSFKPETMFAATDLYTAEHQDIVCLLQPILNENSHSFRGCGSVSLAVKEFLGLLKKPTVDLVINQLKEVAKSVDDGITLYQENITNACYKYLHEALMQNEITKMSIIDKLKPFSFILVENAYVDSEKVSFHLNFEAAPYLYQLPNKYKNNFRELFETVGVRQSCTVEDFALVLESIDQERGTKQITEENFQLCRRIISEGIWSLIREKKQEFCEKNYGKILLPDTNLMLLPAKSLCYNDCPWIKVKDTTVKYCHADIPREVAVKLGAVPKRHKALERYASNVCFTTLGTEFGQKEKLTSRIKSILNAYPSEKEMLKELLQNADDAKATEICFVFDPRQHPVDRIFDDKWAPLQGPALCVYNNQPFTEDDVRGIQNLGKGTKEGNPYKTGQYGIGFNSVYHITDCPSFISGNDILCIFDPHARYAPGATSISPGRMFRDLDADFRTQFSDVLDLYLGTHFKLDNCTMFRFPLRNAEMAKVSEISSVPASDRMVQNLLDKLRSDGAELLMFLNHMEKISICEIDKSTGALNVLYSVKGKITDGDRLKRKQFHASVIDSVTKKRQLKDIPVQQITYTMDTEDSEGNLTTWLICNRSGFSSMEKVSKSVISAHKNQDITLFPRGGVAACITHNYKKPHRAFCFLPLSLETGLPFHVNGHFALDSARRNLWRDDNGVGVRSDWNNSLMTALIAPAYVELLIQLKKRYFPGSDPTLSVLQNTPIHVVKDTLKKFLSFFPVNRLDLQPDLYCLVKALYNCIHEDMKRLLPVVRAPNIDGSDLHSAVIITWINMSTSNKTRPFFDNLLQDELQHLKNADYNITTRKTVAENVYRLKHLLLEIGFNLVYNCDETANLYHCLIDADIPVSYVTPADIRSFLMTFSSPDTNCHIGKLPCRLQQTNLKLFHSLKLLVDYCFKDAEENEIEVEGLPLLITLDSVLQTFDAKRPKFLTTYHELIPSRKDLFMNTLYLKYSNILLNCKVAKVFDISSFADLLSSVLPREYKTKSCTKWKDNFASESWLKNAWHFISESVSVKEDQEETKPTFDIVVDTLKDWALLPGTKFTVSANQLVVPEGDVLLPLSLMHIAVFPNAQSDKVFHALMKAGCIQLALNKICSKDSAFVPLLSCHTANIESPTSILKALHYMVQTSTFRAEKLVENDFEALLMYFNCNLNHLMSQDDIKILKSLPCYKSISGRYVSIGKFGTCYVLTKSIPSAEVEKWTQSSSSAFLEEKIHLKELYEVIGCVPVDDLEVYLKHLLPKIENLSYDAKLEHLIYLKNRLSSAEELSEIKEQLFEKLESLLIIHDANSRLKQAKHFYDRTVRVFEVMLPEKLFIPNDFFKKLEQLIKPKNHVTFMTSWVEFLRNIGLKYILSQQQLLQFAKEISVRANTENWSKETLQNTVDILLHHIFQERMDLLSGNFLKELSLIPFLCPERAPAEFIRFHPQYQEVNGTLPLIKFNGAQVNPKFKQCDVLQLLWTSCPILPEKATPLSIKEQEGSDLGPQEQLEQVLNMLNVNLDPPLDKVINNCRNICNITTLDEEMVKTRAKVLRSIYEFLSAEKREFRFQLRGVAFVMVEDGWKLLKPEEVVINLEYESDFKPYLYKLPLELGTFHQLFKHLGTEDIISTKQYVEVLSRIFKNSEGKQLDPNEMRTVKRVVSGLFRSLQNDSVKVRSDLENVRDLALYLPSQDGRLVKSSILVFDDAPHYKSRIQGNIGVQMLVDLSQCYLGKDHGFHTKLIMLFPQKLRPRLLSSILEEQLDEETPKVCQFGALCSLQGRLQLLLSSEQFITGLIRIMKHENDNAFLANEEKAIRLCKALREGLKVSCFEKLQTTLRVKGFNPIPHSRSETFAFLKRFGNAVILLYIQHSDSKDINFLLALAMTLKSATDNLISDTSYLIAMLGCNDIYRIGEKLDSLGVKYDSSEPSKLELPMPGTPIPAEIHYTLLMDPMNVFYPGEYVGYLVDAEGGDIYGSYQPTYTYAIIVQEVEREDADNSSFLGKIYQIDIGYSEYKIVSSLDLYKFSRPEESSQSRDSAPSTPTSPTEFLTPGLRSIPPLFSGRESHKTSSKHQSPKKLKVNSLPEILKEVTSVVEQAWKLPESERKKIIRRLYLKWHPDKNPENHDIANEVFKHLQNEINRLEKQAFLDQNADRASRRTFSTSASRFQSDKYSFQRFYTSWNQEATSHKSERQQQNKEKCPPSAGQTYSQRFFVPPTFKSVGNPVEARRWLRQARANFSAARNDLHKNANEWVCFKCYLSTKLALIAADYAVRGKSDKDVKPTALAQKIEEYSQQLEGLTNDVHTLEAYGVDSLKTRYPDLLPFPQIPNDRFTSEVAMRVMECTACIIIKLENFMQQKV
UniProt P14625, residues 22-803: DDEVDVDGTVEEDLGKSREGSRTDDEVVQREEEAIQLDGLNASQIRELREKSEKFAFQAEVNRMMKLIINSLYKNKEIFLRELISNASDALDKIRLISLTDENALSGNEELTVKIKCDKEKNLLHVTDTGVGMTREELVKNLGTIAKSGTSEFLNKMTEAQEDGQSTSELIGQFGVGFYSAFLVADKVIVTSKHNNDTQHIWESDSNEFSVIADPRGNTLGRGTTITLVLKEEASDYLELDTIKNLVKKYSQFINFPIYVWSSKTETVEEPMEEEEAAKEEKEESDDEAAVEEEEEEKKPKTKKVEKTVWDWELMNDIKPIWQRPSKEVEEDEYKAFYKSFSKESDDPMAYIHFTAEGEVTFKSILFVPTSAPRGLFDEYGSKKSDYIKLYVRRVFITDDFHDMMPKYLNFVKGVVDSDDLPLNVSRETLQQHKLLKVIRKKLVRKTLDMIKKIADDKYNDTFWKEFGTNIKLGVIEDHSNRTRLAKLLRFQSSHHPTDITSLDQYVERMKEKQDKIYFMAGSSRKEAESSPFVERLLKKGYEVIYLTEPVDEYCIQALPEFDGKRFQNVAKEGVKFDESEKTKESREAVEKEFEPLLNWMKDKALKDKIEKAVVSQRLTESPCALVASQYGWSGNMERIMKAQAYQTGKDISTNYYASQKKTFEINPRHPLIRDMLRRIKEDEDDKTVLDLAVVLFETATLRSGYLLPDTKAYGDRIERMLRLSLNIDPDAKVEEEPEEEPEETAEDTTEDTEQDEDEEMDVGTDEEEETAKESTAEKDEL
UniProt P11021, residues 19-654: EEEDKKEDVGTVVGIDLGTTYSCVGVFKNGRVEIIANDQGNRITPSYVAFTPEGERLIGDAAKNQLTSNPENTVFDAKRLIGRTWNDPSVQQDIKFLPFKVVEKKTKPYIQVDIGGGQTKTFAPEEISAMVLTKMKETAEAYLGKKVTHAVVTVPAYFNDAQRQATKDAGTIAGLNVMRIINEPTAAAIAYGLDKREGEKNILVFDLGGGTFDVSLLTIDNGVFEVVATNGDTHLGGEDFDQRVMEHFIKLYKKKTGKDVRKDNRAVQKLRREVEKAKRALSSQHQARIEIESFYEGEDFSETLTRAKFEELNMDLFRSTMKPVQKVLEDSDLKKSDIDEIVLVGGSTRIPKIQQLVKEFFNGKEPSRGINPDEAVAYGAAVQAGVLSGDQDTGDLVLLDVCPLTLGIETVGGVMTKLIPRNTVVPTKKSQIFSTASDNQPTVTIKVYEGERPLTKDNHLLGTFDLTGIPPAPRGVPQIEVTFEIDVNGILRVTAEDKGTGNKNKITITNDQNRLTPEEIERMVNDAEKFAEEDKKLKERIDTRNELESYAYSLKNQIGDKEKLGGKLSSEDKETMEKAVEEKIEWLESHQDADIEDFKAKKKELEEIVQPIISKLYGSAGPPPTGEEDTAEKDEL
UniProt P08670: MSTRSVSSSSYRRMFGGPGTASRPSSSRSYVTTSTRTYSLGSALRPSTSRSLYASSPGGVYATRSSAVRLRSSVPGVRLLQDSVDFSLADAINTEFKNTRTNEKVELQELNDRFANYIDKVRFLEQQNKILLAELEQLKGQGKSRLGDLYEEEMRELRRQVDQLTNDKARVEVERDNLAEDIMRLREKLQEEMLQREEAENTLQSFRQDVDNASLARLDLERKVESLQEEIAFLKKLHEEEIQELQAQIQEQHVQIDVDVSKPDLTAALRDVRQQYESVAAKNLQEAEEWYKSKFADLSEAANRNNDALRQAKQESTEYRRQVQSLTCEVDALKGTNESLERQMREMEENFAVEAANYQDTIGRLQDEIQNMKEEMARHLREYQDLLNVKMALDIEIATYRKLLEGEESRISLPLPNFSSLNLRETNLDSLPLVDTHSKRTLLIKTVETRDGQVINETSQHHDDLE

These are yes or no findings as the source states them, for the method shown. In cells and extracts the contact can be indirect. These calls come from enrichment with a bait or labelling near it, and not all partners need be listed.

The assay concerns the target sacsin (human (endogenous in SH-SY5Y)) (UniProt Q9NZJ4). Briefly: affinity purification with mass spectrometry.
With HSP90B1 (from UniProt P14625 22-803), the binding result was “binds”.
Regarding HSPA5/BIP (from UniProt P11021 19-654), the binding result is “binds”.
As for vimentin (from UniProt P08670 1-466), the entry is “binds”; as for vinculin (from UniProt P18206-2), “binds”.
